# Library screen at single concentrations

The values are deposited in ChEMBL (CHEMBL3988442, “University of Dundee, Small-Polar-MMV Screening Library” (2021)).

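Whole-parasite assay of Trypanosoma brucei over 72 hours; the read-out is not stated. Compounds at 30 µM. Higher reads as stronger inhibition (inferred: compounds with an IC50 in retests scored well above the rest). Values scatter widely below zero; nearly all retest evidence comes from the higher of the two concentrations used. About 64,000 compounds were tested under these conditions; 1.5% (about 940) showed 50% or more at least once.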

Results are given as percent effect.
The controls that fix the scale are not given in the record; negative values are as filed.
Compounds were drawn at random from those tested, without regard to their results.

| # | compound | Percent Effect |
|---|---|---|
| 1 | `CCc1noc(C(C)N2CCC(C(=O)Nc3cnn(CC)c3)CC2)n1` (stereo unspecified) | -23.13 |
| 2 | `Cn1ccnc1CN1CCC2(CC1)CN(c1cncnc1)C(=O)CO2.O=C(O)C(F)(F)F` | -18.68 |
| 3 | `NC(=O)CN1CCN(C(=O)c2cc(Cl)cc3cccnc23)CC1` | -9.458 |
| 4 | `CCN(Cc1ccc(N(C)C)cc1)S(=O)(=O)c1cc(Br)ccc1OC` | -2.531 |
| 5 | `Cc1nc(N2CCCC2)nc2c1CCN(Cc1ccco1)CC2.O=C(O)C(F)(F)F` | -19.43 |
| 6 | `COc1ccc(C2CC(=O)NCc3nc4ccccn4c32)cn1` (stereo unspecified) | -26.33 |
| 7 | `O=C(O)C(F)(F)F.[H][C@@]12CN(C(=O)c3ccn(C)n3)C[C@]1([H])OCCN2c1ncccn1` | -2.884 |
| 8 | `CCC(C)(C)NC(=O)c1ccc(-c2ccco2)[nH]c1=O` | 5.493 |
| 9 | `O=C(CN1CCCC1c1nc2cc(F)ccc2[nH]1)NCc1ccccn1` (stereo unspecified) | -28.4 |
| 10 | `O=C(c1cc(-c2ccco2)cs1)N1CCOCC1` | -24.57 |
| 11 | `CC(C)(O)CN1CCN(C(=O)c2cccc(CC#N)c2)CC1` | -1.703 |
| 12 | `O=C(c1ccon1)N1CCCCC1c1nc2cc(F)ccc2[nH]1` (stereo unspecified) | 0.03644 |
| 13 | `CCc1nnc2n1CCN(Cc1ncc(-c3ccccc3)o1)C2` | 4.211 |
| 14 | `CNc1cc(C2CCN2c2ncccn2)nc(C)n1` (stereo unspecified) | -0.375 |
| 15 | `Cn1cccc1-c1cc(C(=O)N2CCCC2c2ccc(C(N)=O)s2)[nH]n1` (stereo unspecified) | -23.49 |
| 16 | `Cc1cc(=O)n(CC(=O)NC(C)C)c(Nc2ccc(F)c(C)c2)n1` | -34.74 |
| 17 | `CCn1cc(CN2CCCC(c3[nH]ncc3-c3ccc(F)cc3)C2)cn1` (stereo unspecified) | 3.027 |
| 18 | `CSCC[C@H](NC(=O)CCn1ccc2c(Cl)cccc21)C(=O)O` | -33.77 |
| 19 | `O=C(O)C(F)(F)F.O=C(O)C(F)(F)F.c1ccc(OCC2CC3(CCN(c4ncccn4)CC3)CO2)nc1` (stereo unspecified) | -6.446 |
| 20 | `Cl.[H][C@@]12CCCCN[C@]1([H])[C@@H](c1ccccc1)CCN2S(=O)(=O)N(CC)CC` | -5.055 |
| 21 | `COCC1CN(Cc2ccc(OC)cc2)Cc2nnn(CC3CC3)c21.O=C(O)C(F)(F)F` (stereo unspecified) | -29.06 |
| 22 | `N#Cc1ccc(F)c(CN(CC(=O)N2CCCC2)CC2CCCO2)c1` (stereo unspecified) | -8.82 |
| 23 | `CN(C)c1cncc(C2CCN(CC3(O)CCCCC3)CC2)n1` | -22.23 |
| 24 | `Cc1ccc(NC2CCN(C(=O)C(C(C)C)n3cncn3)CC2)nn1` (stereo unspecified) | 4.819 |
| 25 | `CN(c1cccnn1)C1CCN(C(=O)c2n[nH]c3c2CCC3)CC1` | 0.3471 |
| 26 | `Cc1cc(Cn2cc(C(C)Cc3ccc4c(c3)OCO4)nn2)n[nH]1` (stereo unspecified) | -18 |
| 27 | `COc1cccc2cc(CNCc3ccnc(N(C)C)c3)oc12` | 0.8408 |
| 28 | `C[C@@H](CO)NC(=O)c1ccc2nc(NS(C)(=O)=O)sc2c1` | -23.1 |
| 29 | `CN(C)C(=O)Cn1ccc2cc(NC(=O)N3CCSCC3)ccc21` | -22.95 |
| 30 | `O=C(CSC1CCCC1)N1CCN(C(=O)C2CC2c2cccs2)CC1` (stereo unspecified) | 12.62 |
| 31 | `CN1CCCCCC1C(=O)N1CCN(c2ccccc2C#N)CC1` (stereo unspecified) | 14.65 |
| 32 | `Cc1cc(C)c(CNC(=O)NCC(O)c2ccccc2)c(=O)[nH]1` (stereo unspecified) | 3.784 |
| 33 | `CCOCC(=O)NCCc1nc(C)cc(C(F)(F)F)n1` | -13.18 |
| 34 | `COc1ccc(CCN2CCC(N3CCN(C)C3=O)CC2)cc1` | 13.71 |
| 35 | `COCCN1CC(Nc2nc(C(C)C)nc3c2cnn3C)CC1=O` (stereo unspecified) | -26.96 |
| 36 | `[H][C@@]12COC[C@@H](CC(=O)NCCOC)[C@]1([H])CN(C(=O)COC)C2` | -56.04 |
| 37 | `Cc1cnn(C2CCCN(C(=O)Cn3ccc(=O)n(C)c3=O)C2)c1` (stereo unspecified) | 12.4 |
| 38 | `O=C(O)C(F)(F)F.O=C(O)C(F)(F)F.[H][C@]12C[C@@H](CN(C)C)N(C(C)=O)[C@@]1([H])CCN(C(=O)c1cncc(C)c1)C2` | 10.49 |
| 39 | `COCC(=O)N1CCC2(CC1)CN(c1ccsc1)C(=O)CO2` | -132.3 |
| 40 | `CCC(CNC(=O)c1cc(CC(C)C)nn1C)N(C)CC` (stereo unspecified) | -18.1 |
| 41 | `O=C(CO)N1CCc2onc(Cn3cccn3)c2C1` | 15.21 |
| 42 | `CCS(=O)(=O)N1CCC2(C1)C(=O)N(C)CCN2Cc1ccncc1.O=C(O)C(F)(F)F.O=C(O)C(F)(F)F` (stereo unspecified) | -49.94 |
| 43 | `Cc1cnc(CNS(=O)(=O)CCC2CCCO2)o1` (stereo unspecified) | -5.031 |
| 44 | `CCc1nc(N)nc(N2CCCC3(CCN(C)CC3)CC2)c1C` | -73.08 |
| 45 | `CCN(Cc1ccc2c(c1)OCCO2)C(=O)c1ccc(C)[nH]c1=O` | 11.37 |
| 46 | `Cc1cc(C(=O)N2CCCC(C)C2)ccc1NCc1nc(C2CC2)no1` (stereo unspecified) | -11.15 |
| 47 | `COCCCC1(C(=O)O)CCCN(C(=O)c2ccc(Cl)cc2F)C1` (stereo unspecified) | 1.09 |
| 48 | `Cc1cccc(C(C(=O)NCc2csc(-c3ncccn3)n2)N(C)C)c1` (stereo unspecified) | -32.74 |
| 49 | `CC(C)(C)CNC[C@H]1Cn2c(-c3ccccc3)cnc2CO1` | -2.498 |
| 50 | `O=C1CN(C(=O)CSC2CCCc3ccccc32)CCN1` (stereo unspecified) | -1.472 |
| 51 | `CCc1ccc(CN(C)C(=O)c2cnc3c(c2)nc(N)n3CC)nc1` | 13.29 |
| 52 | `Cc1ccoc1C(=O)NC1CCN(Cc2cccc3c2OCCO3)CC1` | 18.94 |
| 53 | `COc1ccc(-c2noc(Cn3cnc(C)c3)n2)c(OC)c1OC` | -1.782 |
| 54 | `COC(=O)CCNC(=O)c1ccc(NC(=O)N(C)CC(C)(C)C)cc1` | -13.57 |
| 55 | `CC(=O)NCCc1nc(C(C)C)nn1-c1ccncc1C` | -24.34 |
| 56 | `Cc1cc(C[C@@H]2COC[C@H]2NCc2ccc(C)c(C)c2)on1.O=C(O)CC(O)(CC(=O)O)C(=O)O` | 9.51 |
| 57 | `Cc1nnc2ccc(N3CCN(Cc4nccn4C)CC3)nn12` | -41.9 |
| 58 | `COc1ccc(CC(=O)N2CCCC(Cn3cc(CN)nn3)C2)cc1` (stereo unspecified) | -55.24 |
| 59 | `Cn1nc(C(=O)NCc2cccs2)c2c1CCS(=O)(=O)C2` | -10.45 |
| 60 | `CN(CCCNC(=O)NCc1ccncc1)CC(F)(F)F` | -41.08 |
| 61 | `O=C(O)C(F)(F)F.[H][C@@]12CCN(Cc3cnn(C)c3)[C@]1([H])CC[C@@H](C(=O)Nc1cnccn1)O2` | -9.466 |
| 62 | `CCN1CCN(c2ncc(-c3cc(C)no3)c(-c3ccc(C)s3)n2)CC1` | 14.38 |
| 63 | `Fc1ccc([C@@H]2COC[C@H]2NCc2cccc(F)c2)cc1.O=C(O)CC(O)(CC(=O)O)C(=O)O` | -15.75 |
| 64 | `[H][C@]12CC[C@]([H])(CN(C(=O)c3ccccc3)C1)N(S(=O)(=O)c1cccnc1)C2` | 16.58 |
| 65 | `Cn1cc(NS(=O)(=O)c2ccc(OC(F)(F)F)cc2)ccc1=O` | -67.39 |
| 66 | `O=C(CCNC(=O)NC1CCN(C2CC2)CC1)NCc1ccccc1` | -16.58 |
| 67 | `CS(=O)(=O)NCc1cnc2n1CCN(Cc1ccco1)CC2.O=C(O)C(F)(F)F` | -17.83 |
| 68 | `[H][C@]12CCCCN1CCC[C@H]2CNC(=O)CCn1ccc2cc(Br)ccc21` | -7.062 |
| 69 | `CS(=O)(=O)NCC1CCCCN1Cc1ccccc1C#N` (stereo unspecified) | 18.4 |
| 70 | `[H][C@]12CC[C@]([H])(CN(S(=O)(=O)c3cc(Cl)ccc3OC)C1)N(C)C2=O` | 12.03 |
| 71 | `O=C(O)C(F)(F)F.[H][C@@]12CCN(c3ccc(C)nn3)[C@]1([H])CC[C@H](C(=O)N1CCCO1)O2` | -45.1 |
| 72 | `COCCNC(=O)Nc1ccn(-c2cccc(C(F)(F)F)c2)n1` | -44.14 |
| 73 | `COc1ccc(C(CNS(=O)(=O)c2cn(C)nc2C)N2CCCC2)cc1.Cl` (stereo unspecified) | -16.07 |
| 74 | `[H][C@]12CC[C@]([H])(CN(Cc3ccccc3)C1)N(C(=O)N1CCN(C)CC1)C2` | 3.643 |
| 75 | `CCC(C)(C)n1nnnc1C(c1cccs1)N1CCCCC1` (stereo unspecified) | 13.9 |
| 76 | `Cc1cnn(CC(C)NCc2ccc(OCc3cscn3)cc2)c1` (stereo unspecified) | 13.8 |
| 77 | `CN1CC(=O)N(c2ccsc2)CC12CCN(Cc1nccn1C)C2` (stereo unspecified) | -58.16 |
| 78 | `CCCn1cc(NC(=O)c2cccc3cccnc23)ccc1=O` | -24.09 |
| 79 | `[H][C@@]12CCN(Cc3scnc3C)C[C@]1([H])OCCN(c1ccccc1)C2=O` | 11.4 |
| 80 | `O=C(O)C(F)(F)F.[H][C@@]12OCCN(c3ncccn3)[C@@]1([H])CC[C@H]2OCC1CCOCC1` | -62.94 |
| 81 | `Cc1noc(C)c1CCCNC(=O)C1CCCN(C(=O)C2CC2)C1` (stereo unspecified) | -34.35 |
| 82 | `CCS(=O)(=O)N1Cc2nccn2CC(Cn2nc(C)nc2C)C1` (stereo unspecified) | -1.586 |
| 83 | `CCC(=O)Nc1nnc(CCOc2ccc(OC)cc2)s1` | -40.14 |
| 84 | `CC1(C(=O)NC2CCCC2)CCCN(c2ncccn2)C1` (stereo unspecified) | -5.833 |
| 85 | `O=C(C1CCOC1)N1CCC2(CC1)Cc1ccccc1CNC2=O` (stereo unspecified) | -35.93 |
| 86 | `CC(C)COCc1cncc2c1CCN(Cc1cnn(C)c1)C2.O=C(O)C(F)(F)F.O=C(O)C(F)(F)F` | -23.11 |
| 87 | `Cc1noc(CCCC(=O)NC(C)c2nnc3n2CCCCC3)n1` (stereo unspecified) | 8.372 |
| 88 | `CC(C)c1cc(N(C)Cc2noc(C3CCCC3)n2)n2nccc2n1` | 16.42 |
| 89 | `CCN(Cc1ccncc1)Cc1cn(-c2ccccc2)nn1` | -8.71 |
| 90 | `CCOC(=O)c1sc2ccsc2c1CN.Cl` | 1.698 |
| 91 | `O=C(CCN1CCOC1=O)Nc1cnn(-c2ccccc2Cl)c1` | -19.82 |
| 92 | `O=C(NC1CC(=O)N(C2CC2)C1)c1cccs1` (stereo unspecified) | -40.15 |